The list shows a part of the results.
Columns and labels:
Assay in all cases: log2 fold change, soluble protein after heating vs DMSO (PISA); higher = thermal stabilisation; K562 lysate, 10 uM; active = over 0.2 and 3.5 SD of the protein, either way, in both replicates (recomputed)
[1] = compound: C1=CC=C(C=C1)[C@H](COC2=CC3=C(C=C2)NC(=O)N3)NC(=O)C4=CC=CN(C4=O)CC5=CC(=C(C=C5)F)F
Method in brief: (§1)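 Pellets of K562 cells were dounce-homogenised in PBS pH 7.4 with 1 mM MgCl2, and the crude extract was held at 1 mg/mL protein for a 30 min treatment with 10 μM compound. Aliquots were heated for 3 min over 48°C-58°C and pooled before NP-40 was added to 0.5% at 4°C. The supernatant from 21,000xg for 90 min was quantified by TMTpro 16plex LC-MS/MS with channel sums equalised. Values are reported from duplicates as log-two fold change in thermal stability relative to solvent controls.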

Sequences of proteins named here, by UniProt entry; tags and fusion partners are left off. A change or cut given only in a name is not applied to a line headed by its entry.
UniProt O75446: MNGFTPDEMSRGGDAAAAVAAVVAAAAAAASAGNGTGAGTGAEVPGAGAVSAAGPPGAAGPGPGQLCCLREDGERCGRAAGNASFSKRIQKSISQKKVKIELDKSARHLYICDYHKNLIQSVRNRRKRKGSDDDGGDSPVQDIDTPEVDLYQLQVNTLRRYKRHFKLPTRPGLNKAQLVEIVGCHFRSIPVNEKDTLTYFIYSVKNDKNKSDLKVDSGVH
UniProt Q9Y6Y8: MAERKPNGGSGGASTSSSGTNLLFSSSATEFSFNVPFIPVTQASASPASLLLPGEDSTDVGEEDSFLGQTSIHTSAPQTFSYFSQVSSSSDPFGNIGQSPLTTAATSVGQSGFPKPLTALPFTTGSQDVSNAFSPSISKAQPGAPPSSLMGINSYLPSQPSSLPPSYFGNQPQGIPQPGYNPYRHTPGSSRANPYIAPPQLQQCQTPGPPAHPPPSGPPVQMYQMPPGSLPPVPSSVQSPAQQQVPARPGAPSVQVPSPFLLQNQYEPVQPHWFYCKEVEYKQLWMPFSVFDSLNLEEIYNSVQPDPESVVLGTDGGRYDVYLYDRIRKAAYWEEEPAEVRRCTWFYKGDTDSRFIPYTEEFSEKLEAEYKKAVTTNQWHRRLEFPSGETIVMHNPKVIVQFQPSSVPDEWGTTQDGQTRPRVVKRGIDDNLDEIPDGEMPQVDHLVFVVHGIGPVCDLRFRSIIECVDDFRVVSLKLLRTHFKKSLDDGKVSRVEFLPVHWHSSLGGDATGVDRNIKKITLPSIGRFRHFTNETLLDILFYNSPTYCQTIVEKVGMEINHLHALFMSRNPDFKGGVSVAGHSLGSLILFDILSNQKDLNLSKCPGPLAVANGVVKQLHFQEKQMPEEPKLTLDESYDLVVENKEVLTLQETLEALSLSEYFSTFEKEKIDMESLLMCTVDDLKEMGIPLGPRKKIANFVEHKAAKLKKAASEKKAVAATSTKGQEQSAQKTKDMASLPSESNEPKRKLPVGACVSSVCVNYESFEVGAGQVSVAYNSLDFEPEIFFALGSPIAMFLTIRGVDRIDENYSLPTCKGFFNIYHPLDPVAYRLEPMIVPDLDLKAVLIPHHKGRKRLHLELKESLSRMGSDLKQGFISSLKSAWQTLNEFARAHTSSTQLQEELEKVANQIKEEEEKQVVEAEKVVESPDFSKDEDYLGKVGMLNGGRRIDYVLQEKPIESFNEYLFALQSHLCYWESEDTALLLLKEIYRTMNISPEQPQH
UniProt Q99442: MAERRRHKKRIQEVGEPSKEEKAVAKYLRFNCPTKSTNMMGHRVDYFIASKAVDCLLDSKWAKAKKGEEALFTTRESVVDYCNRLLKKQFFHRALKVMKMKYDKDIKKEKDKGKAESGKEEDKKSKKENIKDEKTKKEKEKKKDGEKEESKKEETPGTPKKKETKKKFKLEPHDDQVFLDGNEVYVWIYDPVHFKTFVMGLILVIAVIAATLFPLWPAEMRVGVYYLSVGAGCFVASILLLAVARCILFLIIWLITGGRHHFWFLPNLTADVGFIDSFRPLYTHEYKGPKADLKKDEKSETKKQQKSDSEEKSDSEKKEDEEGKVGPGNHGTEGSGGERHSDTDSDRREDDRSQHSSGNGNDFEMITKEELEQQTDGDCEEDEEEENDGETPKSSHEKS
UniProt Q9BW04: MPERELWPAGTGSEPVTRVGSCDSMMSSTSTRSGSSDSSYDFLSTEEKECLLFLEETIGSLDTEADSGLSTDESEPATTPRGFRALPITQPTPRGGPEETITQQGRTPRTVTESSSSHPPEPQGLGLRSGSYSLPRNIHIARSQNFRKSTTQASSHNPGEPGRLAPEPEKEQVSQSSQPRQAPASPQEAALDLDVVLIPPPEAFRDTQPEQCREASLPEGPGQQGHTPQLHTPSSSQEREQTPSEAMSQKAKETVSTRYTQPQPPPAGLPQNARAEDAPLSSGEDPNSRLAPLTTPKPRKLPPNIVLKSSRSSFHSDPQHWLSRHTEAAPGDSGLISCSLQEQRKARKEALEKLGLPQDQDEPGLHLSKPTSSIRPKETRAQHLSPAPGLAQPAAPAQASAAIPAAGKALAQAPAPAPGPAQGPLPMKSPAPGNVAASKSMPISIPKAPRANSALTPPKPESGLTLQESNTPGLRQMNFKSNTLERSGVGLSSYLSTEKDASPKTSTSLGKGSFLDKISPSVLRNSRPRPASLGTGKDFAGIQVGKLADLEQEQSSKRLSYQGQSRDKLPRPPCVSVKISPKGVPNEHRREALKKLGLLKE
UniProt Q99643: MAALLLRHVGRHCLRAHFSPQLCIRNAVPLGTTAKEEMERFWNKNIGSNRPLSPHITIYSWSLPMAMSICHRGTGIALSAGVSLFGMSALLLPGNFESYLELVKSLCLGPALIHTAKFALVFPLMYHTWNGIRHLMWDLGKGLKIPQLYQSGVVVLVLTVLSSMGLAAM
UniProt Q12770: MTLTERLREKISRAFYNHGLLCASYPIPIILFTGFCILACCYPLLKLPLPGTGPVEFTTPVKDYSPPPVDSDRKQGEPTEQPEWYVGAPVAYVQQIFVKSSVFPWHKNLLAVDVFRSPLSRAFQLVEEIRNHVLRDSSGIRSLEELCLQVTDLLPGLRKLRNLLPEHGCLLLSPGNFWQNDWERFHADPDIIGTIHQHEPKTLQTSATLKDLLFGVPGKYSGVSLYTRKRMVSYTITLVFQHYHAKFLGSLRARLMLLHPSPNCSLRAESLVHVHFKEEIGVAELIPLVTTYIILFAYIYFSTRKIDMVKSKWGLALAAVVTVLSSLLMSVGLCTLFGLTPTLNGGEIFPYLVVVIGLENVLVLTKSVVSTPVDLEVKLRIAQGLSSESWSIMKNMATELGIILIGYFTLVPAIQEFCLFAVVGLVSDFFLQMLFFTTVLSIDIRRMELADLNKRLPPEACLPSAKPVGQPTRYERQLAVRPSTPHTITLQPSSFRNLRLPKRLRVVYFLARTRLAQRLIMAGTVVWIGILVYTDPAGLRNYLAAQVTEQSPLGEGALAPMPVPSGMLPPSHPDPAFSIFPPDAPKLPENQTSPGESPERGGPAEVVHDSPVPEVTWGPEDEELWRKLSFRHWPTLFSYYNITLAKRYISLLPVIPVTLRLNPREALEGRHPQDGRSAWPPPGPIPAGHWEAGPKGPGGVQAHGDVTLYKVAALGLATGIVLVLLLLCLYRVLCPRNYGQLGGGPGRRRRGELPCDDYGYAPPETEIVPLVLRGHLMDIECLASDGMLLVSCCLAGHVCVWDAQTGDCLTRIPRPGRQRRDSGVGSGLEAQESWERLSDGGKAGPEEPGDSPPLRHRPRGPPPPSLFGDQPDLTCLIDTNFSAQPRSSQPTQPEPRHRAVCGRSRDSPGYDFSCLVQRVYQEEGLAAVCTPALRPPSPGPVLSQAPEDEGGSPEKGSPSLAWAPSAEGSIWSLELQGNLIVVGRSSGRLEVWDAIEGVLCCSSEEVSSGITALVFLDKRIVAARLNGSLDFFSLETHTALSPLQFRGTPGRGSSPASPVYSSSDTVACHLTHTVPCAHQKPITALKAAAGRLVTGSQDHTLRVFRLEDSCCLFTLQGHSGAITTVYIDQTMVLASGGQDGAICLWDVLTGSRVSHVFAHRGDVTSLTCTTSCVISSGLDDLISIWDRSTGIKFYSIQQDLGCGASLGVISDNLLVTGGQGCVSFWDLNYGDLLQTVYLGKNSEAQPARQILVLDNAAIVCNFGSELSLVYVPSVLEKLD
UniProt Q6P3W7: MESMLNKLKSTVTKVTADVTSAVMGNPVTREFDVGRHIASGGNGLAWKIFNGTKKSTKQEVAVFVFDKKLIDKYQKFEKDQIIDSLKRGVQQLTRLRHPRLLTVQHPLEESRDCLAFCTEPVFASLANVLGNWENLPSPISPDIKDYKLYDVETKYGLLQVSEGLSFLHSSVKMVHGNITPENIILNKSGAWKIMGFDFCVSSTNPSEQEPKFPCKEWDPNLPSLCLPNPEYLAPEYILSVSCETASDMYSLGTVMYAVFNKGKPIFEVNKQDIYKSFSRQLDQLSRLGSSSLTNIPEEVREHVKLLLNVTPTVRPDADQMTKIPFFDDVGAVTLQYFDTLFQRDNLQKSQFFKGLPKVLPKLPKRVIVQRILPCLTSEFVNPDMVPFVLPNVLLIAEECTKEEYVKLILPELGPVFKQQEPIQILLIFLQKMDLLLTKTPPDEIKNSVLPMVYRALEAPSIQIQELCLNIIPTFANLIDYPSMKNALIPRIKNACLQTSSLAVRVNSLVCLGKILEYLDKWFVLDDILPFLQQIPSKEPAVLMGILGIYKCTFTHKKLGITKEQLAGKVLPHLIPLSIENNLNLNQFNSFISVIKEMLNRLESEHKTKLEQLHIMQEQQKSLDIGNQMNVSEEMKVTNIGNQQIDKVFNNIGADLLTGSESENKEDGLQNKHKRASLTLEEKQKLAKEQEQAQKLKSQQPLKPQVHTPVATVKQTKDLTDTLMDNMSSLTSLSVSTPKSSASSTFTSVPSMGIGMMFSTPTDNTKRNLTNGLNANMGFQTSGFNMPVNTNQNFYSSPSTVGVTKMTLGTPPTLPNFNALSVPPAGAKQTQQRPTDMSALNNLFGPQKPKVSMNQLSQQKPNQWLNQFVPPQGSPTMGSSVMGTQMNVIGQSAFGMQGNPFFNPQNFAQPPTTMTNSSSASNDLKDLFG
UniProt Q6UVJ0: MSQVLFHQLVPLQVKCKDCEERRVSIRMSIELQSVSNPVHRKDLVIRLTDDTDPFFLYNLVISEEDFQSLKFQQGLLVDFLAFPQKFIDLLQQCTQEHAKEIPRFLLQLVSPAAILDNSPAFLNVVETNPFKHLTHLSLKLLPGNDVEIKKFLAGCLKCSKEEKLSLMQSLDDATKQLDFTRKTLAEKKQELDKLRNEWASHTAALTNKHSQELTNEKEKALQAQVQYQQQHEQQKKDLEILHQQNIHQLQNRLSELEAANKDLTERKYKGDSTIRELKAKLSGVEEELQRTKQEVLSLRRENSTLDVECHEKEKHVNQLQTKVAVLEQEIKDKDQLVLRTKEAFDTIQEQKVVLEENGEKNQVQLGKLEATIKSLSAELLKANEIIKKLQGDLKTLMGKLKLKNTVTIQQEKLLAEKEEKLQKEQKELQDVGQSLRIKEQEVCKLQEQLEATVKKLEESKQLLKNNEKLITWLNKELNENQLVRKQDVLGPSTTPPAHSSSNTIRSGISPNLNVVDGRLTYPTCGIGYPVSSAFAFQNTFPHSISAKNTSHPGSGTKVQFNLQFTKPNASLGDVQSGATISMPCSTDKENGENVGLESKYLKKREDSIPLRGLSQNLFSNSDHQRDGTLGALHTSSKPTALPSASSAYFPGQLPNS
UniProt Q9UPN6: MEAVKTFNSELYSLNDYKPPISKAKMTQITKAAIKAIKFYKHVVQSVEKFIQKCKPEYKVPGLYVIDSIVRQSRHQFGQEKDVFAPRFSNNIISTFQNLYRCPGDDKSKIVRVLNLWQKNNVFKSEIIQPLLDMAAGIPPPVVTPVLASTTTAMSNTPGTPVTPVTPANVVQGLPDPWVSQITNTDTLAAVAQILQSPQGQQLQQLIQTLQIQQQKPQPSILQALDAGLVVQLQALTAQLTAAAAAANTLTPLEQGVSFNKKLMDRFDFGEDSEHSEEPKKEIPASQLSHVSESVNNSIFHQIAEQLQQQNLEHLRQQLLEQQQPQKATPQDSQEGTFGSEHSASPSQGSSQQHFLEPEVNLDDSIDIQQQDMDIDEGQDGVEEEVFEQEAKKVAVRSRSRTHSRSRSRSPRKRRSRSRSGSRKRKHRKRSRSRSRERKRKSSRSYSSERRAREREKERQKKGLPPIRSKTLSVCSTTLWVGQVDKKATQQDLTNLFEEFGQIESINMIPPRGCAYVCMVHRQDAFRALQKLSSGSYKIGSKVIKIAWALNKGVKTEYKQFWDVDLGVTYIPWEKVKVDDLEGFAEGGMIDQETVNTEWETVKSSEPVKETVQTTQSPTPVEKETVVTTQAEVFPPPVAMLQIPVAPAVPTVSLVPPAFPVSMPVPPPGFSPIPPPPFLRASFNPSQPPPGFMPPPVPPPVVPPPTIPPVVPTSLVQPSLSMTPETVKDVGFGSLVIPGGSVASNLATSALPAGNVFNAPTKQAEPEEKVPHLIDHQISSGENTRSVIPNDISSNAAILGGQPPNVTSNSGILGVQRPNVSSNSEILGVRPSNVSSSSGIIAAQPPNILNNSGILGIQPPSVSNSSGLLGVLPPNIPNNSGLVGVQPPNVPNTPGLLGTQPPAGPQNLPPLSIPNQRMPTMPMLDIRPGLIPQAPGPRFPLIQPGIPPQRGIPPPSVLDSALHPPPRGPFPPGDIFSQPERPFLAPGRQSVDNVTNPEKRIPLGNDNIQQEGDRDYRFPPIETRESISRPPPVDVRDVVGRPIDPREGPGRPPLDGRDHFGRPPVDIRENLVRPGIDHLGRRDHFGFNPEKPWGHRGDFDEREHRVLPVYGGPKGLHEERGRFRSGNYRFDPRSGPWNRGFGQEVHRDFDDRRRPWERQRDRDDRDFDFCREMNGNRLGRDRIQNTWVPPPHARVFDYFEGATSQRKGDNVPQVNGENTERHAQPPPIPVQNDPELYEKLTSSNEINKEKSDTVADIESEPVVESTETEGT

[2] = compound: CC1=C(SC2=C1C(=N[C@H](C3=NN=C(N32)C)CC(=O)N)C4=CC=C(C=C4)Cl)C
Method in brief: as §1

[3] = compound: CC1=C2C(=CC=C1)N=C(N(C2=O)C3=CC=CC=C3C)CN4C=NC5=C(N=CN=C54)N
Method in brief: as §1

[4] = compound: Cc1sc2c(c1C)C(c1ccc(Cl)cc1)=N[C@@H](CC(=O)OC(C)(C)C)c1nnc(C)n1-2
Method in brief: as §1

[5] = compound: c1ccc([C@@H]2C[C@H]2NC2CCNCC2)cc1
Method in brief: as §1

Measured: log2 fold change

SAP30 (UniProt O75446)
inactive: [1] 0.029 | [2] -0.029 | [3] 0.009 | [4] 0.014 | [5] -0.026

SAMSN1 (UniProt Q9NSI8)
inactive: [1] 0.008 | [2] 0.007 | [3] -0.012 | [4] 0.014 | [5] -0.007

SCARB2 (UniProt Q14108)
inactive: [1] 0.034 | [2] 0.022 | [3] -0.029 | [4] -0.002 | [5] 0.074

SEC23IP (UniProt Q9Y6Y8)
inactive: [1] -0.008 | [2] 0.008 | [3] 0.016 | [4] 0.061 | [5] 0.03

SEC62 (UniProt Q99442)
inactive: [1] 0.059 | [2] -0.017 | [3] 0.015 | [4] 0.043 | [5] -0.023

SEC11C (UniProt Q9BY50)
inactive: [1] -0.215 | [2] -0.164 | [3] 0.075 | [4] -0.032 | [5] -0.005

SCRN3 (UniProt Q0VDG4)
inactive: [1] 0.033 | [2] -0.004 | [3] 0.001 | [4] 0.003 | [5] 0.003

SELENOF (UniProt O60613)
inactive: [1] -0.005 | [2] -0.011 | [3] -0.008 | [4] -0.019 | [5] -0.005

SCAMP1 (UniProt O15126)
inactive: [1] 0.009 | [2] -0.025 | [3] 0.008 | [4] -0.108 | [5] -0.088

SARG (UniProt Q9BW04)
inactive: [1] 0.013 | [2] -0.021 | [3] 0.085 | [4] -0.031 | [5] -0.11

SECISBP2 (UniProt Q96T21)
inactive: [1] -0.106 | [2] 0.085 | [3] -0.039 | [4] -0.088 | [5] 0.081

SART1 (UniProt O43290)
inactive: [1] 0.059 | [2] -0.031 | [3] 0.052 | [4] 0.002 | [5] -0.008

SDHC (UniProt Q99643)
inactive: [1] -0.045 | [2] -0.016 | [3] 0.035 | [4] -0.085 | [5] -0.09

SCD (UniProt O00767)
inactive: [1] -0.016 | [2] -0.007 | [3] 0.103 | [4] -0.179 | [5] -0.184

SEL1L (UniProt Q9UBV2)
inactive: [1] 0.022 | [2] -0.005 | [3] 0.03 | [4] -0.07 | [5] 0.006

SELENOK (UniProt Q9Y6D0)
inactive: [1] 0.061 | [2] -0.074 | [3] -0.05 | [4] -0.181 | [5] -0.311

SCRIB (UniProt Q14160)
inactive: [1] -0.048 | [2] -0.023 | [3] 0.02 | [4] 0.023 | [5] -0.012

SCAP (UniProt Q12770)
inactive: [1] -0.011 | [2] -0.026 | [3] 0.095 | [4] -0.015 | [5] -0.007

SCYL2 (UniProt Q6P3W7)
inactive: [1] -0.027 | [2] 0.016 | [3] 0.02 | [4] 0.001 | [5] -0.042

SCAMP2 (UniProt O15127)
inactive: [1] 0.043 | [2] 0.077 | [3] -0.045 | [4] -0.079 | [5] -0.001

SASS6 (UniProt Q6UVJ0)
inactive: [1] -0.01 | [2] 0.028 | [3] 0 | [4] 0.021 | [5] 0.037

SAR1B (UniProt Q9Y6B6)
inactive: [1] -0.006 | [2] -0.007 | [3] -0.01 | [4] -0.068 | [5] 0.052

SDHAF4 (UniProt Q5VUM1)
inactive: [1] 0.032 | [2] -0.024 | [3] 0.115 | [4] -0.09 | [5] -0.015

SCP2 (UniProt P22307)
inactive: [1] 0.012 | [2] 0.02 | [3] -0.002 | [4] -0.005 | [5] 0.042

SEPTIN6 (UniProt Q14141)
inactive: [1] -0.01 | [2] -0.029 | [3] -0.011 | [4] 0.042 | [5] 0.036

SEPSECS (UniProt Q9HD40)
inactive: [1] 0.059 | [2] 0.01 | [3] 0.029 | [4] -0.018 | [5] -0.065

SDE2 (UniProt Q6IQ49)
inactive: [1] 0.042 | [2] -0.032 | [3] 0.045 | [4] 0.005 | [5] -0.009

2 consecutive records from above, quoted:
SDHAF4 (UniProt Q5VUM1)
inactive: [1] 0.032 | [2] -0.024 | [3] 0.115 | [4] -0.09 | [5] -0.015

SCP2 (UniProt P22307)
inactive: [1] 0.012 | [2] 0.02 | [3] -0.002 | [4] -0.005 | [5] 0.042

(listing goes on)

SEC24D isoform 2 (UniProt O94855)
inactive: [1] -0.003 | [2] 0.006 | [3] -0.016 | [4] 0.033 | [5] 0.009

SEC13 isoform 3 (UniProt P55735)
inactive: [1] 0.022 | [2] -0.013 | [3] -0.001 | [4] -0.029 | [5] 0.191

SAFB2 (UniProt Q14151)
inactive: [1] 0.03 | [2] -0.009 | [3] -0.012 | [4] 0.027 | [5] -0.042

SCAF8 (UniProt Q9UPN6)
inactive: [1] -0.091 | [2] 0.012 | [3] 0.04 | [4] 0.041 | [5] 0.095
